# Test results: patent publication US20250073680A1, “METHOD OF REGENERATING BIS(IMINOGUANIDINE) CARBON DIOXIDE SORBENTS FROM CARBONATE OR BICARBONATE SALT THEREOF” (UT-Battelle, LLC, priority 2023, published 2025)
# Several values for one entry are separate records, joined by “and”; a condition that tells them apart may be missing. Identical values can stand only once.
# What was measured:
# [1] = Direct steam stripping regeneration in DSR reactor; conditions: for time for regeneration by direct steam: 10 g, low-temperature steam 100 C; for estimated concentration of regenerated solution: liquid condensate after steam stripping (9.2 mL for MGBIG, 9.6 mL for GBIG); for regeneration rate, direct steam vs conductive heating: times faster with steam (times longer/slower with conductive heating); for mass loss after full regeneration: fully regenerated
# [2] = Initial carbon content by total inorganic carbon analyzer; type: physicochemical
# [3] = CO2 desorption by heating solid within water in a conventional oven
# [4] = Conductive/convection heating regeneration without steam (oven or reactor baseline); conditions: for time for full regeneration by conductive heating: 10 g
# [5] = Exp #2: 5 g, 30 min, water 85 ml, reactor/steam 100/100 C
# [6] = Exp #3: 3 g, 30 min, water 10 ml, reactor/steam 96/100 C
# [7] = Exp #4: 6 g, 30 min, water 10 ml, reactor/steam 95/100 C
# [8] = Exp #5: 10 g, 30 min, water 10 ml, reactor/steam 80/100 C, drain valve open
# [9] = Exp #6: 10 g, 20 min, water 115 ml, reactor/steam 88/100 C (no insulation), drain valve open
# [10] = 10 g within 30 min, direct steam stripping
# [11] = Exp #9: 1 g, 30 min, water 180 ml, reactor/steam 130/132 C
# [12] = Exp #18: 3 g, 30 min, water 165 ml, reactor/steam 95/100-112 C
# [13] = Exp #20: 10 g, 30 min, water 85 ml, reactor/steam 80/101 C
structure (smiles),measurement,setting,value
"CC(/C=N/NC(=N)N)=N\NC(=N)N [MGBIG, methylglyoxal-bis(iminoguanidine)]",time for regeneration by direct steam,[1],30 min
same,estimated concentration of regenerated solution,[1],1.9 M
same,removal efficiency,"[1]; small amount (3-6 g), minimal water consumption ~10 mL",93%
same,"regeneration rate, direct steam vs conductive heating",[1],3.5 times
"CC(/C=N/NC(=N)N)=N\NC(=N)N [MGBIG-C, methylglyoxal-bis(iminoguanidine) (MGBIG) carbonate]","Solid (Avg % C, n = 2)","[2]; Exp #0, Ref",4.20±0.05 % C and 4.21 % C
same,state in water at 50 C,"[3]; 1 g in 5 mL of water, 50 C","remains in a solid state, indicating no regeneration"
same,temperature at which CO2 release was observed,[3]; solid heated in water in oven,~78 °C
same,removal efficiency,"[4]; 5 g, without steam injection, after 1 h of heating, reactor 100 C",88.3%
same,"Solid (Avg % C, n = 2)","[4]; Exp #1: 5 g, 60 min, water 0 ml, reactor/steam 100/80 C, no steam injection",0.492±0.128 % C and 0.49 % C
same,supernatant solution CO2 content,"[1]; Exp #2, 5 g, steam, after cooling to room temperature",0.024 mol CO2/L
same,removal efficiency,"[1]; Exp #2, 5 g, steam, based on the carbon amount in the precipitated solid",99.5%
same,Liquid Supernatant (molCO2),[1]; [5],0.024/ molCO2
same,"Liquid [% C] Precipitation [Avg % C, n = 2]",[1]; [5],0.018±0.005 % C and 0.02 % C
same,Liquid Supernatant (molCO2),[1]; [6],0.029/ molCO2
same,"Liquid [% C] Precipitation [Avg % C, n = 2]",[1]; [6],0.19 % C
same,Liquid Supernatant (molCO2),[1]; [7],0.023 molCO2
same,"Liquid [% C] Precipitation [Avg % C, n = 2]",[1]; [7],0.28 % C
same,"Solid (Avg % C, n = 2)",[1]; [7],0.22 % C
same,Liquid Supernatant (molCO2),[1]; [8],0.032 molCO2
same,"Liquid [% C] Precipitation [Avg % C, n = 2]",[1]; [8],2.43 % C
same,Liquid Supernatant (molCO2),[1]; [9],0.025/ molCO2
same,"Liquid [% C] Precipitation [Avg % C, n = 2]",[1]; [9],2.73 % C
same,mass loss after full regeneration,[1],~34%
same,"regeneration rate, direct steam vs conductive heating",[1],at least 3 times
"N=C(N)N/N=C/C=N/NC(=N)N [GBIG-C, GBIG carbonate]","Solid (Avg % C, n = 2)","[2]; Exp #7, Ref",6.25±0.98 % C and 6.25 % C
same,time for full regeneration by conductive heating,"[4]; 130 C, oven",140 min
same,time for full regeneration by conductive heating,"[4]; 130 C, oven, listed as GBIG carbonate",135 min
same,"Solid (Avg % C, n = 2)","[4]; Exp #8: 1 g, 30 min, oven, 95 C",3.23; % C
same,"Solid (Avg % C, n = 2)","[4]; Exp #8: 1 g, 30 min, oven, 105 C",2.21; % C
same,"Solid (Avg % C, n = 2)","[4]; Exp #8: 1 g, 30 min, oven, 115 C",1.91; % C
same,"Solid (Avg % C, n = 2)","[4]; Exp #8: 1 g, 30 min, oven, 130 C",1.79 % C
same,"Solid (Avg % C, n = 2)","[4]; Exp #15: 3 g, 30 min, water 0 ml, reactor/steam 95/64-78 C",1.86 % C
same,"Solid (Avg % C, n = 2)","[4]; Exp #21: 10 g, 135 min, oven, 130 C",0.04 % C
same,removal efficiency,[1]; [10],99%
same,time for regeneration by direct steam,[1],30 min
same,Liquid Supernatant (molCO2),[1]; [11],0.002/ molCO2
same,"Liquid [% C] Precipitation [Avg % C, n = 2]",[1]; [11],0.02 % C
same,"Solid (Avg % C, n = 2)",[1]; [11],0.03 % C
same,"Solid (Avg % C, n = 2)","[1]; Exp #10: 1 g, 20 min, water 120 ml, reactor/steam 115/118 C",0.01 % C
same,"Solid (Avg % C, n = 2)","[1]; Exp #11: 1 g, 30 min, water 175 ml, reactor/steam 95-115/100-120 C, triplicate experiments",0.06; % C and 0.04; % C and 0.06 % C
same,"Solid (Avg % C, n = 2)","[1]; Exp #12: 3 g, 30 min, water 175 ml, reactor/steam 95/100-112 C",0.03 % C
same,"Solid (Avg % C, n = 2)","[1]; Exp #13: 5 g, 30 min, water 175 ml, reactor/steam 95/100-106 C",0.10 % C
same,"Solid (Avg % C, n = 2)","[1]; Exp #14: 10 g, 30 min, water 175 ml, reactor/steam 95/100-109 C",0.08 % C
same,"Solid (Avg % C, n = 2)","[1]; Exp #16: 3 g, 30 min, water 10 ml, reactor/steam 95/72-103 C",0.06 % C
same,"Solid (Avg % C, n = 2)","[1]; Exp #17: 3 g, 30 min, water 85 ml, reactor/steam 95/98-118 C",0.06 % C
same,"Liquid [% C] Precipitation [Avg % C, n = 2]",[1]; [12],0.02 % C
same,"Solid (Avg % C, n = 2)",[1]; [12],0.04 % C
same,"Solid (Avg % C, n = 2)","[1]; Exp #19: 10 g, 30 min, water 10 ml, reactor/steam 80/84 C",4.22 % C
same,supernatant solution CO2 content,"[1]; Exp #20, 10 g, steam, after cooling",0.019 mol CO2/L
same,Liquid Supernatant (molCO2),[1]; [13],0.02 molCO2
same,"Liquid [% C] Precipitation [Avg % C, n = 2]",[1]; [13],0.010±0.001 % C and 0.01 % C
same,"Solid (Avg % C, n = 2)",[1]; [13],0.08±0.008 % C and 0.07 % C
same,mass loss after full regeneration,[1],40%
same,"regeneration rate, direct steam vs conductive heating",[1],4.5 times
"N=C(N)NN=CC=NNC(=N)N [GBIG, glyoxal-bis(iminoguanidine)]",removal efficiency,[1]; [10],99%
same,estimated concentration of regenerated solution,[1],1.7 M
